{
  "source": "the supplement of paper PMC8104966",
  "note": "Several values for one entry are separate records, joined by “and”; a condition that tells them apart may be missing. Equal values may be shown once. Some of the results follow. This data set is noisy: repeats of one test often differ as much as different tests do.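 U2OS cells expressing ACE2 were combined with U2OS cells expressing full-length spike, and imaging quantified fusion as the fraction of nuclei displaying both cell types' fluorescent markers. Non-toxic compounds with a fusion z-score under -3, i.e., over three standard deviations below the plate's DMSO wells, are called inhibitory hits.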",
  "data": [
    {"system": "U2OS ACE2 x SARS-CoV-2 spike co-culture", "assay": "cell-cell fusion (fraction fused) z-score vs plate DMSO control; higher = more fusion", "conditions": "30 µM; 5 h; toxicity class: non-toxic, passed QC", "values": [
      {"molecule": "CN(C)N=Nc1nc[nH]c1C(N)=O", "note": "[Dacarbazine]", "cell-cell fusion (z-score)": "inactive: 2.42"},
      {"molecule": "O=c1[nH]cnc2c1ncn2[C@H]1CC[C@@H](CO)O1", "note": "[Didanosine]", "cell-cell fusion (z-score)": "inactive: 1.48"},
      {"molecule": "Cl.Cl.O.O=c1ccc2[nH]cc(C3=CCNCC3)c2[nH]1", "cell-cell fusion (z-score)": "inactive: 2.24 and inactive: 4"},
      {"molecule": "O=C1/C(=C/c2ccsc2)CC/C1=C\\c1cccs1", "cell-cell fusion (z-score)": "inactive: 1.26"},
      {"molecule": "CCOC(=O)[C@H](C)C[C@@H](Cc1ccc(-c2ccccc2)cc1)NC(=O)CCC(=O)O", "cell-cell fusion (z-score)": "inactive: 0.829"},
      {"molecule": "CN1CCN(C2=Nc3cc(Cl)ccc3Nc3ccccc32)CC1", "note": "[Clozapine]", "cell-cell fusion (z-score)": "inactive: 1.18"},
      {"molecule": "CCC(=O)O[C@H]1[C@H](O[C@@H]2[C@@H](C)[C@H](O[C@H]3C[C@@](C)(OC)[C@@H](O)[C@H](C)O3)[C@@H](C)C(=O)O[C@H](CC)[C@@](C)(O)[C@H](O)[C@@H](C)C(=O)[C@H](C)C[C@@]2(C)O)O[C@H](C)C[C@@H]1N(C)C.CCCCCCCCCCCCOS(=O)(=O)O", "cell-cell fusion (z-score)": "active: -5.44"},
      {"molecule": "NCC[C@@H](O)C(=O)N[C@@H]1C[C@H](N)[C@@H](O[C@H]2O[C@H](CN)[C@@H](O)[C@H](O)[C@H]2O)[C@H](O)[C@H]1O[C@H]1O[C@H](CO)[C@@H](O)[C@H](N)C1O.O", "note": "(stereo partly specified)", "cell-cell fusion (z-score)": "inactive: 2.78"},
      {"molecule": "CC1CCC(C(C)C)C(O)C1", "note": "(racemic) [DL-Menthol]", "cell-cell fusion (z-score)": "inactive: 3.36"},
      {"molecule": "CN1Cc2c(N)cccc2C(c2ccccc2)C1.O=C(O)/C=C\\C(=O)O", "note": "(stereo unspecified)", "cell-cell fusion (z-score)": "inactive: 1.85"},
      {"molecule": "CN1Cc2c(N)cccc2C(c2ccccc2)C1.O=C(O)/C=C\\C(=O)O", "note": "(stereo unspecified) [Nomifensine maleate]", "cell-cell fusion (z-score)": "inactive: 2.16"},
      {"molecule": "Cl.c1ccc2c(CC3=NCCN3)cccc2c1", "note": "[Naphazoline hydrochloride]", "cell-cell fusion (z-score)": "inactive: 1.88"},
      {"molecule": "CCC1(O)CC2CN(CCc3c([nH]c4ccccc34)[C@@](C(=O)OC)(c3cc4c(cc3OC)N(C=O)C3[C@]45CCN4CC=C[C@@](CC)([C@@H](OC(C)=O)[C@]3(O)C(=O)OC)[C@H]45)C2)C1.O=S(=O)(O)O", "note": "(stereo partly specified) [Vincristine sulfate]", "cell-cell fusion (z-score)": "inactive: 1.1"},
      {"molecule": "CC(NC(=O)c1ccccc1/N=C/c1c(O)ccc2ccccc12)c1ccccc1", "note": "(stereo unspecified) [Sirtinol]", "cell-cell fusion (z-score)": "inactive: 1.13"},
      {"molecule": "CN(CCN1CCC(OC(=O)Nc2ccccc2-c2ccccc2)CC1)C(=O)c1ccc(CN2CCC(C(N)=O)CC2)cc1", "note": "[Revefenacin]", "cell-cell fusion (z-score)": "inactive: 1.62"},
      {"molecule": "O=C(O)c1cc2ccccc2c(Cc2c(O)c(C(=O)O)cc3ccccc23)c1O.OCCOCCN1CCN(C(c2ccccc2)c2ccc(Cl)cc2)CC1", "cell-cell fusion (z-score)": "inactive: 0.375"}
    ]}
  ]
}
